Measured data: PubChem BioAssay AID1259254 (NCATS, 2017)
Here is an unselected part of about 59,000 deposited reagents. In the full data, about 1,550 (2.6%) are marked active. 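G2 share is only a proxy for re-replication; each gene was hit by three separate siRNAs, and active genes were retested.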 Raw values vary from plate to plate and are shown uncorrected. Unmarked entries are inactive. Reagents against one gene are numbered here. Not given: the amount of reagent.

Assay: 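Gene knock-downs that lead to re-replication, shown by excess G2 DNA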 (primary screen)
Cell system: human HCT116 colorectal cancer cells
Reagent: single siRNA against human genes
Timing: 3 days
Measured: 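Nuclei stained with Hoechst and imaged; cell-cycle phase assigned by DNA content; G2 share scaled per plate, non-targeting siRNA 0%, GMNN siRNA 100%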
Direction: G2 robust z-score and G2 cells, % of GMNN control: higher = more G2 cells, more excess DNA replication; raw share of cells in G2: higher = larger share of cells with G2 DNA content
Hit rule: 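Active siRNAs have a G2 robust z of 5 or more median absolute deviations over the median, which in these data means about 38% or higher of GMNN control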

target gene	reagent	G2 robust z-score	G2 cells, % of GMNN control	raw share of cells in G2 (%)
CCDC83	1	0.448	6.12	5.8
CCDC83	2	0.209	4.44	4.65
CCDC83	3	3.6	28.3	12.2
COL27A1	1	-0.242	1.27	4.62
COL27A1	2	-0.562	-0.987	2.69
COL27A1	3	-0.228	1.36	3.36
DDX21	1	-0.205	1.53	5.25
DDX21	2	2.07	17.6	11.4
DDX21	3	2.28	19	13.2
ZNF85	1	-0.386	0.251	3.61
ZNF85	2	-1.01	-4.14	4.14
ZNF85	3	-0.518	-0.674	3.06
ACR	1	0.458	6.19	7.72
ACR	2	-0.454	-0.23	4.83
ACR	3	-0.000968	2.96	5.01
HSPA2	1	1.92	16.5	10
HSPA2	2	0.197	4.35	6.88
HSPA2	3	-0.37	0.366	3.24
PPIAP74	1	-1.02	-4.22	2.58
PPIAP74	2	0.596	7.16	5.37
PPIAP74	3	-0.209	1.5	3.12
USP27X	1	0.64	7.47	8.16
USP27X	2	1.52	13.6	9.74
USP27X	3	-0.627	-1.44	3.37
GSTM5	1	0.583	7.07	8.37
GSTM5	2	-1.41	-6.95	1.65
GSTM5	3	0.105	3.71	6.39

Reformatted: results already given
| target gene | reagent | G2 robust z-score | G2 cells, % of GMNN control | raw share of cells in G2 (%) |
| --- | --- | --- | --- | --- |
| COL27A1 | 3 | -0.228 | 1.36 | 3.36 |
| DDX21 | 1 | -0.205 | 1.53 | 5.25 |
| DDX21 | 2 | 2.07 | 17.6 | 11.4 |

Next records:
target gene	reagent	G2 robust z-score	G2 cells, % of GMNN control	raw share of cells in G2 (%)
CD320	1	-0.174	1.75	4.23
CD320	2	-0.959	-3.78	2.68
CD320	3	1.18	11.3	6.92
CDX1	1	-0.356	0.462	4.26
CDX1	2	0.487	6.4	7.33
CDX1	3	1.52	13.6	9.83
CAV3	1	0.522	6.64	6.46
CAV3	2	0.377	5.62	6.63
CAV3	3	-0.291	0.919	5.4
COX6C	1	-0.168	1.78	5.64
COX6C	2	0.728	8.09	7.85
COX6C	3	-0.166	1.8	4.71
GCOM1	1	-0.731	-2.18	3.1
GCOM1	2	-1.02	-4.23	1.61
GCOM1	3	-0.288	0.943	3.4
TRMT6	1	2.65	21.6	15.8
TRMT6	2	2.96	23.8	13
TRMT6	3	0.718	8.02	6.88
ZNF672	1	-0.703	-1.98	2.09
ZNF672	2	-1.37	-6.69	2.88
ZNF672	3	-0.129	2.06	4.28
